Measurements as given in paper PMC7063070.
Results are given in words; binding and its absence hold for the method and conditions named. Binding seen in cells or lysates may run through a third protein. A yes stands for co-enrichment or nearness to the bait. Other partners may have been found.

B1: LL5β (pleckstrin homology (PH)-like domain, family B, member 2) (protein, UniProt Q86SQ0 1-1253)
chain: MEEHSYIQKELDLQNGSLEEDSVVHSVENDSQNMMESLSPKKYSSSLRFKANGDYSGSYLTLSQPVPAKRSPSPLGTSVRSSPSLAKIQGSKQFSYDGTDKNIPMKPPTPLLNTTSSLSGYPLGRADFDHYTGRDSERALRLSEKPPYSKYSSRHKSHDNVYSLGGLEGRKASGSLLAMWNGSSLSDAGPPPISRSGAASMPSSPKQARKMSIQDSLALQPKLTRHKELASENINLRTRKYSSSSLSHMGAYSRSLPRLYRATENQLTPLSLPPRNSLGNSKRTKLGEKDLPHSVIDNDNYLNFSSLSSGALPYKTSASEGNPYVSSTLSVPASPRVARKMLLASTSSCASDDFDQASYVGTNPSHSLLAGESDRVFATRRNFSCGSVEFDEADLESLRQASGTPQPALRERKSSISSISGRDDLMDYHRRQREERLREQEMERLERQRLETILSLCAEYTKPDSRLSTGTTVEDVQKINKELEKLQLSDEESVFEEALMSPDTRYRCHRKDSLPDADLASCGSLSQSSASFFTPRSTRNDELLSDLTRTPPPPSSTFPKASSESSYLSILPKTPEGISEEQRSQELAAMEETRIVILNNLEELKQKIKDINDQMDESFRELDMECALLDGEQKSETTELMKEKEILDHLNRKIAELEKNIVGEKTKEKVKLDAEREKLERLQELYSEQKTQLDNCPESMREQLQQQLKRDADLLDVESKHFEDLEFQQLEHESRLDEEKENLTQQLLREVAEYQRNIVSRKEKISALKKQANHIVQQAQREQDHFVKEKNNLIMMLQREKENLCNLEKKYSSLSGGKGFPVNPNTLKEGYISVNEINEPCGNSTNLSPSTQFPADADAVATEPATAVLASQPQSKEHFRSLEERKKQHKEGLYLSDTLPRKKTTSSISPHFSSATMGRSITPKAHLPLGQSNSCGSVLPPSLAAMAKDSESRRMLRGYNHQQMSEGHRQKSEFYNRTASESNVYLNSFHYPDHSYKDQAFDTLSLDSSDSMETSISACSPDNISSASTSNIARIEEMERLLKQAHAEKTRLLESREREMEAKKRALEEEKRRREILEKRLQEETSQRQKLIEKEVKIRERQRAQARPLTRYLPVRKEDFDLRSHVETAGHNIDTCYHVSITEKTCRGFLIKMGGKIKTWKKRWFVFDRNKRTFSYYADKHETKLKGVIYFQAIEEVYYDHLKNANKSPNPLLTFSVKTHDRIYYMVAPSPEAMRIWMDVIVTGAEGYTHFLL
B2: KN motif and ankyrin repeat domain-containing protein 2 (KANK2) (protein, UniProt Q63ZY3 1-851)
chain: MAQVLHVPAPFPGTPGPASPPAFPAKDPDPPYSVETPYGYRLDLDFLKYVDDIEKGHTLRRVAVQRRPRLSSLPRGPGSWWTSTESLCSNASGDSRHSAYSYCGRGFYPQYGALETRGGFNPRVERTLLDARRRLEDQAATPTGLGSLTPSAAGSTASLVGVGLPPPTPRSSGLSTPVPPSAGHLAHVREQMAGALRKLRQLEEQVKLIPVLQVKLSVLQEEKRQLTVQLKSQKFLGHPTAGRGRSELCLDLPDPPEDPVALETRSVGTWVRERDLGMPDGEAALAAKVAVLETQLKKALQELQAAQARQADPQPQAWPPPDSPVRVDTVRVVEGPREVEVVASTAAGAPAQRAQSLEPYGTGLRALAMPGRPESPPVFRSQEVVETMCPVPAAATSNVHMVKKISITERSCDGAAGLPEVPAESSSSPPGSEVASLTQPEKSTGRVPTQEPTHREPTRQAASQESEEAGGTGGPPAGVRSIMKRKEEVADPTAHRRSLQFVGVNGGYESSSEDSSTAENISDNDSTENEAPEPRERVPSVAEAPQLRPAGTAAAKTSRQECQLSRESQHIPTAEGASGSNTEEEIRMELSPDLISACLALEKYLDNPNALTERELKVAYTTVLQEWLRLACRSDAHPELVRRHLVTFRAMSARLLDYVVNIADSNGNTALHYSVSHANFPVVQQLLDSGVCKVDKQNRAGYSPIMLTALATLKTQDDIETVLQLFRLGNINAKASQAGQTALMLAVSHGRVDVVKALLACEADVNVQDDDGSTALMCACEHGHKEIAGLLLAVPSCDISLTDRDGSTALMVALDAGQSEIASMLYSRMNIKCSFAPMSDDESPTSSSAEE

Target: integrin αVβ5 (human (endogenous in MDA-MB-435S))
Experiment: isolation of cross-linked integrin adhesion complexes with mass spectrometry; cells grown 48 h on uncoated dishes, cross-linked with 6 mM DTBP for 5 min, lysed in modified RIPA buffer, cell bodies removed by high-pressure washing, remaining adhesions scraped off and analysed by LC-MS/MS; MDA-MB-435S compared with the integrin αV knock-down clones 2αV and 3αV; no bait

Binder	binding
B1	binds
B2	binds
